Results from US20080167271A1, “PHARMACEUTICAL COMPOSITIONS COMPRISING A BISPHOSPHONATE COMPOUND” (Besins Healthcare SA, priority 2006, published 2008).

Tests used:
[1] = rat, published data (Lin, Russel, Gertz 1999); cited from earlier work
[2] = system: human abdominal dermatomed skin; assay: In vitro dermal absorption, Franz cell assay; assay type: in vitro ADME

## NCCCC(O)(P(=O)(O)O)P(=O)(O)O [alendronate, 4-amino-1-hydroxybutylidene-1,1-bisphosphonic acid]
[1]
  urinary recovery after IV administration: 36%
[2]; FIGS. 12-13
  effect of glycerine on amount recovered in the receptor fluid and the dermis: neutral effect
[2]; Franz cell, human skin, 24 hrs
  percutaneous absorption: recovery in the receptor fluid and the dermis: does cross the skin
[2]; buffered solution vs 100% phosphate buffer, FIGS. 10-11
  effect of urea on amount recovered in the receptor fluid and dermis/skin: neutral effect
[2]; ethanol/water versus pure aqueous compositions, FIG. 4
  effect of alcohol content on the percentage of absorption: does not detrimentally affect
[2]; higher in rats than in humans
  in vitro absorption in rats versus humans: 10 fold
[2]; human skin Franz cell, Example 2
  absorption rate in vitro: 0.6%
[2]; menthol at 90% of saturating concentration in 90/10 phosphate buffer/ethanol vs phosphate buffer solution, FIGS. 6-7
  effect of menthol on amount recovered in the receptor fluid and dermis: does not increase
[2]; urea in phosphate buffer solution, FIGS. 8-9
  effect of urea on amount recovered in the receptor fluid and dermis: neutral effect
[2]; vs 100% phosphate buffer solution, FIGS. 10-11
  effect of propylene glycol (PG) on amount recovered: tends to reduce
[2]; water/alcohol solutions, FIGS. 1-2
  effect of the increase in alcohol content on absorption (percentage of the dose applied): not significantly modified
